Assay results taken from the supplement of paper PMC8728848.
This is one part of the list.

Legend:
Assay in all cases: glycan array binding signal (z-score within array); higher = stronger binding
Conditions in all cases: glycan notation: IUPAC condensed, linker removed
[1] = biological target: Neu5Ac(a2-3)Gal(b1-3)GlcNAc(b1-2)Man(a1-3)[Neu5Ac(a2-3)Gal(b1-3)GlcNAc(b1-2)Man(a1-6)]Man(b1-4)GlcNAc(b1-4)GlcNAc
In short: (§1)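 Glycan array data came from 3228 arrays in the Consortium for Functional Glycomics database, and only arrays with an available protein sequence were kept. Glycan names were put into IUPAC-condensed notation, and columns mapping to the same glycan were averaged. The binding signal is a within-array Z-score, averaged across arrays of one protein sequence run at different concentrations or buffers and across linkers. A negative Z-score can be read as non-binding.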

[2] = biological target: Neu5Ac(a2-3)Gal(b1-3)GlcNAc(b1-2)[Neu5Ac(a2-3)Gal(b1-3)GlcNAc(b1-4)]Man(a1-6)[Neu5Ac(a2-3)Gal(b1-3)GlcNAc(b1-2)Man(a1-3)]Man(b1-4)GlcNAc(b1-4)GlcNAc
In short: as §1

[3] = biological target: Neu5Ac(a2-3)Gal(b1-3)GlcNAc(b1-3)Gal(b1-3)GlcNAc
In short: as §1

[4] = biological target: Neu5Ac(a2-3)Gal(b1-3)GlcNAc(b1-3)Gal(b1-4)GlcNAc
In short: as §1

[5] = biological target: Neu5Ac(a2-3)Gal(b1-3)GlcNAc(b1-3)GalNAc
In short: as §1

[6] = biological target: Neu5Ac(a2-3)Gal(b1-3)GlcNAc(b1-6)GalNAc
In short: as §1

[7] = biological target: Neu5Ac(a2-3)Gal(b1-3)GlcNAc6S
In short: as §1

[8] = biological target: Neu5Ac(a2-3)Gal(b1-3)[Fuc(a1-4)]GlcNAc
In short: as §1

[9] = biological target: Neu5Ac(a2-3)Gal(b1-3)[Fuc(a1-4)]GlcNAc(b1-3)Gal(b1-3)[Fuc(a1-4)]GlcNAc
In short: as §1

[10] = biological target: Neu5Ac(a2-3)Gal(b1-3)[Fuc(a1-4)]GlcNAc(b1-3)Gal(b1-4)[Fuc(a1-3)]GlcNAc
In short: as §1

[11] = biological target: Neu5Ac(a2-3)Gal(b1-3)[GlcNAc(b1-6)]GalNAc
In short: as §1

[12] = biological target: Neu5Ac(a2-3)Gal(b1-3)[Neu5Ac(a2-3)Gal(b1-4)]GlcNAc
In short: as §1

[13] = biological target: Neu5Ac(a2-3)Gal(b1-3)[Neu5Ac(a2-6)]GalNAc
In short: as §1

[14] = biological target: Neu5Ac(a2-3)Gal(b1-3)[Neu5Ac(a2-6)]GlcNAc(b1-3)[Fuc(a1-3)[Gal(b1-4)]GlcNAc(b1-6)]Gal(b1-4)Glc
In short: as §1

[15] = biological target: Neu5Ac(a2-3)Gal(b1-3)]Neu5Ac(a2-3)Gal(b1-4)]GlcNAc
In short: as §1

[16] = biological target: Neu5Ac(a2-3)Gal(b1-4)Glc
In short: as §1

[17] = biological target: Neu5Ac(a2-3)Gal(b1-4)GlcNAc
In short: as §1

[18] = biological target: Neu5Ac(a2-3)Gal(b1-4)GlcNAc(b1-2)Man
In short: as §1

[19] = biological target: Neu5Ac(a2-3)Gal(b1-4)GlcNAc(b1-2)Man(a1-3)[GlcNAc(b1-2)Man(b1-4)GlcNAc(b1-2)Man(a1-6)]Man(b1-4)GlcNAc(b1-4)GlcNAc
In short: as §1

[20] = biological target: Neu5Ac(a2-3)Gal(b1-4)GlcNAc(b1-2)Man(a1-3)[GlcNAc(b1-4)][Neu5Ac(a2-3)Gal(b1-4)GlcNAc(b1-2)Man(a1-6)]Man(b1-4)GlcNAc(b1-4)GlcNAc
In short: as §1

[21] = biological target: Neu5Ac(a2-3)Gal(b1-4)GlcNAc(b1-2)Man(a1-3)[Neu5Ac(a2-3)Gal(b1-4)GlcNAc(b1-2)Man(a1-6)]Man(b1-4)GlcNAc(b1-4)GlcNAc
In short: as §1

[22] = biological target: Neu5Ac(a2-3)Gal(b1-4)GlcNAc(b1-2)Man(a1-3)[Neu5Ac(a2-3)Gal(b1-4)GlcNAc(b1-2)Man(a1-6)]Man(b1-4)GlcNAc(b1-4)[Fuc(a1-6)]GlcNAc
In short: as §1

[23] = biological target: Neu5Ac(a2-3)Gal(b1-4)GlcNAc(b1-2)Man(a1-3)[Neu5Ac(a2-6)Gal(b1-4)GlcNAc(b1-2)Man(a1-6)]Man(b1-4)GlcNAc(b1-4)GlcNAc
In short: as §1

[24] = biological target: Neu5Ac(a2-3)Gal(b1-4)GlcNAc(b1-2)[Neu5Ac(a2-3)Gal(b1-4)GlcNAc(b1-4)]Man(a1-3)[GlcNAc(b1-4)][Neu5Ac(a2-3)Gal(b1-4)GlcNAc(b1-2)[Neu5Ac(a2-3)Gal(b1-4)GlcNAc(b1-6)]Man(a1-6)]Man(b1-4)GlcNAc(b1-4)GlcNAc
In short: as §1

[25] = biological target: Neu5Ac(a2-3)Gal(b1-4)GlcNAc(b1-2)[Neu5Ac(a2-3)Gal(b1-4)GlcNAc(b1-4)]Man(a1-3)[GlcNAc(b1-4)][Neu5Ac(a2-3)Gal(b1-4)GlcNAc(b1-4)Man(a1-6)]Man(b1-4)GlcNAc(b1-4)GlcNAc
In short: as §1

[26] = biological target: Neu5Ac(a2-3)Gal(b1-4)GlcNAc(b1-2)[Neu5Ac(a2-3)Gal(b1-4)GlcNAc(b1-6)]Man(a1-6)[Neu5Ac(a2-3)Gal(b1-4)GlcNAc(b1-2)Man(a1-3)][GlcNAc(b1-4)]Man(b1-4)GlcNAc(b1-4)GlcNAc
In short: as §1

[27] = biological target: Neu5Ac(a2-3)Gal(b1-4)GlcNAc(b1-3)Gal
In short: as §1

[28] = biological target: Neu5Ac(a2-3)Gal(b1-4)GlcNAc(b1-3)Gal(b1-3)GlcNAc
In short: as §1

[29] = biological target: Neu5Ac(a2-3)Gal(b1-4)GlcNAc(b1-3)Gal(b1-4)GlcNAc
In short: as §1

[30] = biological target: Neu5Ac(a2-3)Gal(b1-4)GlcNAc(b1-3)Gal(b1-4)GlcNAc(b1-2)Man(a1-3)[Neu5Ac(a2-3)Gal(b1-4)GlcNAc(b1-3)Gal(b1-4)GlcNAc(b1-2)Man(a1-6)]Man(b1-4)GlcNAc(b1-4)GlcNAc
In short: as §1

[31] = biological target: Neu5Ac(a2-3)Gal(b1-4)GlcNAc(b1-3)Gal(b1-4)GlcNAc(b1-3)Gal(b1-4)GlcNAc
In short: as §1

[32] = biological target: Neu5Ac(a2-3)Gal(b1-4)GlcNAc(b1-3)Gal(b1-4)GlcNAc(b1-3)Gal(b1-4)GlcNAc(b1-2)Man(a1-3)[Neu5Ac(a2-3)Gal(b1-4)GlcNAc(b1-3)Gal(b1-4)GlcNAc(b1-3)Gal(b1-4)GlcNAc(b1-2)Man(a1-6)]GalNAc
In short: as §1

[33] = biological target: Neu5Ac(a2-3)Gal(b1-4)GlcNAc(b1-3)Gal(b1-4)GlcNAc(b1-3)GalNAc
In short: as §1

[34] = biological target: Neu5Ac(a2-3)Gal(b1-4)GlcNAc(b1-3)Gal(b1-4)GlcNAc(b1-3)[Neu5Ac(a2-3)Gal(b1-4)GlcNAc(b1-3)Gal(b1-4)GlcNAc(b1-6)]GalNAc
In short: as §1

[35] = biological target: Neu5Ac(a2-3)Gal(b1-4)GlcNAc(b1-3)Gal(b1-4)GlcNAc(b1-6)[Gal(b1-3)]GalNAc
In short: as §1

[36] = biological target: Neu5Ac(a2-3)Gal(b1-4)GlcNAc(b1-3)Gal(b1-4)[Fuc(a1-3)]GlcNAc
In short: as §1

[37] = biological target: Neu5Ac(a2-3)Gal(b1-4)GlcNAc(b1-3)GalNAc
In short: as §1

[38] = biological target: Neu5Ac(a2-3)Gal(b1-4)GlcNAc(b1-3)[Neu5Ac(a2-3)Gal(b1-4)GlcNAc(b1-6)]GalNAc
In short: as §1

[39] = biological target: Neu5Ac(a2-3)Gal(b1-4)GlcNAc(b1-6)GalNAc
In short: as §1

[40] = biological target: Neu5Ac(a2-3)Gal(b1-4)GlcNAc(b1-6)[Gal(b1-3)]GalNAc
In short: as §1

[41] = biological target: Neu5Ac(a2-3)Gal(b1-4)GlcNAc(b1-6)[Neu5Ac(a2-3)Gal(b1-3)]GalNAc
In short: as §1

[42] = biological target: Neu5Ac(a2-3)Gal(b1-4)GlcNAc6S
In short: as §1

[43] = biological target: Neu5Ac(a2-3)Gal(b1-4)[Fuc(a1-3)]GlcNAc
In short: as §1

[44] = biological target: Neu5Ac(a2-3)Gal(b1-4)[Fuc(a1-3)]GlcNAc(b1-2)Man
In short: as §1

## KISKRILTGKK [NK11 (Sus scrofa)]
[1]
  glycan array binding signal (z-score): -0.579
[2]
  glycan array binding signal (z-score): 0.219
[3]
  glycan array binding signal (z-score): -0.342
[4]
  glycan array binding signal (z-score): -0.059
[5]
  glycan array binding signal (z-score): 0.329
[6]
  glycan array binding signal (z-score): 2.33
[7]
  glycan array binding signal (z-score): 1.21
[8]
  glycan array binding signal (z-score): -0.073
[9]
  glycan array binding signal (z-score): 0.113
[10]
  glycan array binding signal (z-score): 0.541
[11]
  glycan array binding signal (z-score): 0.233
[12]
  glycan array binding signal (z-score): 0.152
[13]
  glycan array binding signal (z-score): -0.164
[14]
  glycan array binding signal (z-score): 1.41
[15]
  glycan array binding signal (z-score): 1.82
[16]
  glycan array binding signal (z-score): 0.15
[17]
  glycan array binding signal (z-score): 0.156
[18]
  glycan array binding signal (z-score): 1.03
[19]
  glycan array binding signal (z-score): -0.419
[20]
  glycan array binding signal (z-score): 0.628
[21]
  glycan array binding signal (z-score): -0.485
[22]
  glycan array binding signal (z-score): 2.3
[23]
  glycan array binding signal (z-score): 0.387
[24]
  glycan array binding signal (z-score): -0.111
[25]
  glycan array binding signal (z-score): 0.32
[26]
  glycan array binding signal (z-score): 0.405
[27]
  glycan array binding signal (z-score): -0.148
[28]
  glycan array binding signal (z-score): 0.481
[29]
  glycan array binding signal (z-score): 0.782
[30]
  glycan array binding signal (z-score): -0.199
[31]
  glycan array binding signal (z-score): 0.099
[32]
  glycan array binding signal (z-score): 0.541
[33]
  glycan array binding signal (z-score): 0.887
[34]
  glycan array binding signal (z-score): 0.509
[35]
  glycan array binding signal (z-score): -1.6
[36]
  glycan array binding signal (z-score): -0.352
[37]
  glycan array binding signal (z-score): 0.319
[38]
  glycan array binding signal (z-score): 1.38
[39]
  glycan array binding signal (z-score): -0.366
[40]
  glycan array binding signal (z-score): 1.1
[41]
  glycan array binding signal (z-score): -1.16
[42]
  glycan array binding signal (z-score): 0.656
[43]
  glycan array binding signal (z-score): -0.126
[44]
  glycan array binding signal (z-score): -0.124
